# PubChem BioAssay AID1259424, University of Nebraska Medical Center, 2018
# Assay: 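Rank knockdowns across the genome by resemblance to the KSR1 depletion profile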 (primary screen)
# Cells: human HCT116 colon cancer cells
# Reagents: siRNA pool against human genes, 50 nM
# Measurement: 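Six signature mRNAs by branched-DNA multiplex assay, scaled to two housekeeping genes and non-targeting median, log2; matched to mean KSR1 knockdown profile by Pearson correlation and euclidean distance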
# Scale: mean correlation with KSR1 profile and KSR1 correlation: higher = expression change more like KSR1 knockdown; mean distance from KSR1 profile: higher = expression change less like KSR1 knockdown
# The whole screen tested about 14,000 reagents; below is a random part of them. 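Higher correlation or smaller distance means closer resemblance to KSR1 loss; control wells, including KSR1 knockdowns, recur on many plates.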 No sequences are given here. Not given: the time to read-out.
gene,PubChem SID,mean correlation with KSR1 profile,mean distance from KSR1 profile,"KSR1 correlation, replicate 1","KSR1 correlation, replicate 2","KSR1 correlation, replicate 3"
ZW10,SID363995683,0.0796,2.49,0.00867,0.364,0.128
KRT81,SID363993479,-0.237,1.58,-0.194,-0.487,-0.421
RHPN1-AS1,SID364002696,-0.0628,1.96,-0.227,-0.149,0.0479
MGST2,SID363993591,0.19,0.982,0.0739,0.404,-0.125
NECTIN1,SID363994011,0.0699,1.89,0.183,0.0644,-0.099
LAP3,SID363999709,0.154,2.28,0.224,0.0273,0.0204
BTN2A3P,SID364002682,-0.363,2.25,-0.0861,-0.445,-0.53
ASIC3,SID363995726,0.378,1.03,0.519,0.818,-0.228
UROS,SID363991706,-0.323,1.02,0.22,-0.0598,-0.689
UBP1,SID363998919,-0.317,3.18,-0.101,-0.505,-0.191
PSMG3,SID364003888,0.306,1.45,0.125,0.297,0.34
GPSM2,SID363998415,0.295,2.01,0.372,0.216,0.463
ZBTB18,SID363997168,-0.253,2.14,-0.244,-0.131,-0.206
MOB2,SID364004429,0.298,2.08,-0.00542,0.316,0.28
KLKB1,SID363992177,0.214,2.11,0.245,0.0819,0.258
ZIM2,SID363999442,-0.183,1.39,0.214,-0.526,-0.245
REEP2,SID364000230,-0.644,4.07,-0.837,-0.499,0.307
SLC30A3,SID363994559,-0.571,2.06,-0.427,-0.497,-0.626
ISYNA1,SID364000066,-0.385,3.14,-0.284,-0.38,-0.417
RFPL2,SID363997395,-0.169,2.33,0.0721,-0.292,-0.248
BRPF3,SID364005306,0.29,1.27,-0.109,0.0203,0.174
POLE4,SID364001472,-0.668,1.99,-0.629,-0.572,-0.607
B3GNT9,SID364004357,0.896,3.14,0.806,0.278,0.307
PURB,SID364004346,-0.141,2.75,0.0504,-0.333,-0.0345
EMX1,SID363995107,0.0817,2.61,0.43,0.213,0.0152
NFKBID,SID364004137,0.581,1.31,0.398,0.517,0.496
SORCS1,SID364004413,-0.412,2.08,-0.405,-0.364,-0.464
NFYC,SID363998662,0.487,2.28,0.581,0.707,0.344
BORCS6,SID364000398,-0.268,5.3,-0.254,-0.106,-0.229
MARK2,SID363995896,-0.0674,2.34,0.0639,-0.105,-0.204
EBI3,SID363996638,-0.547,2.01,-0.396,-0.552,-0.734
MRPL11,SID363999826,-0.487,3.2,0.0402,-0.598,0.0707
CRK,SID363996129,0.0504,2.35,0.0365,-0.164,0.113
EPN1,SID363998443,0.299,1.11,0.0285,-0.487,-0.0375
ADIPOR1,SID363999784,0.874,0.739,0.875,0.763,0.711
FCAR,SID363993212,-0.334,1.95,-0.3,-0.334,-0.328
ELF3,SID363995415,0.352,2.03,0.54,0.545,0.037
RNF128,SID364002857,0.849,0.774,0.9,0.816,0.812
UGDH,SID363994471,0.759,1.07,0.683,-0.168,0.538
ZCCHC7,SID364003837,0.757,1.1,0.709,0.633,0.709
CDK2AP1,SID363995610,-0.286,2.44,-0.11,-0.233,-0.53
MIA2,SID363996798,-0.626,3.29,-0.58,-0.675,-0.616
TMEM126B,SID364001108,0.16,2.14,-0.0455,-0.0144,0.156
NUP205,SID364005246,-0.702,2.99,-0.735,-0.662,-0.626
OLFML2B,SID363999497,-0.0955,2.15,0.179,-0.219,-0.148
RASSF5,SID364003622,0.567,0.971,0.633,0.501,0.135
CACNA1D,SID363992017,0.196,2.02,-0.00283,0.365,0.271
FCRL5,SID364003570,0.0259,1.43,-0.00432,0.164,-0.51
FXYD1,SID363995970,0.184,2.37,0.254,0.126,0.117
NTM,SID364000167,0.657,4.68,0.327,0.543,0.559
PSMC1,SID363993959,-0.532,3.75,-0.401,-0.691,-0.576
PARP2,SID363996386,-0.404,1.91,-0.368,-0.655,-0.202
PHLPP2,SID364005137,-0.0874,1.09,-0.191,-0.474,0.337
IVL,SID363996447,-0.524,2.64,-0.511,-0.537,-0.532
HS2ST1,SID363998184,-0.12,1.42,-0.0268,-0.0186,0.515
CLK1,SID363995081,-0.062,2.14,0.0985,-0.0126,-0.621
HSD3B2,SID363991534,0.128,2.28,0.427,-0.0863,0.00227
RAVER2,SID364005442,-0.516,1.88,-0.541,-0.184,-0.454
CREG1,SID363994912,0.15,1.49,0.142,0.461,0.038
SUSD2,SID364001431,-0.643,2.7,-0.688,-0.648,-0.529
MSX2,SID363993627,-0.303,3.47,-0.0974,-0.218,-0.272
PPP3CB,SID364002029,-0.487,2.08,-0.407,-0.618,-0.395
KIAA1549L,SID364005116,0.35,1.74,0.205,0.308,0.353

Targets above whose gene name begins with M or m:
gene,PubChem SID,mean correlation with KSR1 profile,mean distance from KSR1 profile,"KSR1 correlation, replicate 1","KSR1 correlation, replicate 2","KSR1 correlation, replicate 3"
MGST2,SID363993591,0.19,0.982,0.0739,0.404,-0.125
MOB2,SID364004429,0.298,2.08,-0.00542,0.316,0.28
MARK2,SID363995896,-0.0674,2.34,0.0639,-0.105,-0.204
MRPL11,SID363999826,-0.487,3.2,0.0402,-0.598,0.0707
MIA2,SID363996798,-0.626,3.29,-0.58,-0.675,-0.616
MSX2,SID363993627,-0.303,3.47,-0.0974,-0.218,-0.272
